Results on one substance are retold here after patent US20030036504 (published 2003).

This data set can be described thus: Fmoc solid-phase peptide synthesis; 4-(2′-4′-dimethoxyphenyl)-Fmoc aminomethyl phenoxy acetamide norleucine MBHA resin; HBTU (Fast Moc). The conditions noted are these: whole synthesis, analytical RP-HPLC, C-18 column.

Take “Ala Gly Glu Gly Thr Phe Thr Ser Asp Leu Ser Lys Gln Leu Glu Glu Glu Ala Val Arg Leu Phe Ile Glu Phe Leu Lys Asn-NH2”: the “crude purity (method not given)” value is listed as “about 75%”.
